Test results published in PMC10139132, “Immobilization of M3 Muscarinic Receptor to Rapidly Analyze Drug—Protein Interactions and Bioactive Components in a Natural Plant” (International Journal of Molecular Sciences, 2023).
Structures can show the parent of a compound that is named as a salt. Where two headings read alike, the source gives them in different places.

System: M3 muscarinic receptor (M3R)
Format: binding

SMILES | mL by Frontal Analysis (number of binding sites) (immobilized M3R column) | mL by Frontal Analysis (number of binding sites)
CN1[C@@H]2CC[C@H]1C[C@@H](OC(=O)C(CO)c1ccccc1)C2 (some centres unmarked) [Atropine sulfate, atropine sulfate] | (1.42 ± 0.45) × 10^−7 M | 
CN1[C@@H]2CC(OC(=O)[C@H](CO)c3ccccc3)C[C@H]1[C@@H]1O[C@@H]12.Cl (single isomer, unassigned; (-)) [(−)-Scopolamine hydrochloride] |  | (1.44 ± 0.19) × 10^−7 M
